Results taken from US20230340142A1 (SUZHOU NEOLOGICS BIOSCIENCE, published 2023).
Positions count from the first letter of the chain named. Results are given in words; binding and its absence hold for the method and conditions named. Some binding calls cover weakened binding; strength is not graded here.

By UniProt entry, the sequences of proteins in these tests, tags left out. Where a name states a change or a piece, a line headed by the entry shows the natural chain unless it says otherwise.
UniProt Q9NZQ7: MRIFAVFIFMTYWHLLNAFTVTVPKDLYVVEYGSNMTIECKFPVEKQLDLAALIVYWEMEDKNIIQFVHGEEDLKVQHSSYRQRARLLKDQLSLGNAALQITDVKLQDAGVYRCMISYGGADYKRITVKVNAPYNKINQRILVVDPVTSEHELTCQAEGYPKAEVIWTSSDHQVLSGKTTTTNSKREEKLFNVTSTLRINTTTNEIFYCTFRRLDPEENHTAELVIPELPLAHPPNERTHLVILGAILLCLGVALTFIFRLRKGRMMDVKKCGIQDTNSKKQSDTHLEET

Assays:
human PD-L1 [1] = target: T1, human PD-L1 (human, UniProt Q9NZQ7 19-238, limits assumed); experiment: flow cytometry on MDA-MB-231 cells (PD-L1 on the cell surface), PE-labelled secondary antibody, MFI
T1 construct: also called hPD-L1
Experimental: (§1) Glycosylation differences in cancer cell lines of different tissue origin may affect the binding affinity between PD-L1 antibody and PD-L1. In this study, five cell lines were selected, namely BT20(Breast), mb-231 (Breast), A375(Melanoma), HCC827(Lung), and RKO(Colon). Cells were re-suspended with FACS buffer (1%BSA in PBS), and 50 µl cell suspension per well was added to the 96-well U-bottom plate (Corning, catalog#3795). The purified antibody to be tested was diluted in gradient, then 50 µl was added to each well and incubated at 4° C. for 1 hour. After washing by FACS buffer for three times, the cells were incubated with PE-labeled fluorescent secondary antibody and incubated at 4° C. for half an hour. Cells were washed three times with FACS buffer and resuspended to 200 uL/ well. The fluorescence signal was detected using Canto II flow cytometry (BD).

human PD-L1 [2] = target: T1, human PD-L1; experiment: flow cytometry on RKO cells (PD-L1 on the cell surface), PE-labelled secondary antibody, MFI
Experimental: as §1

human PD-L1 [3] = target: T1, human PD-L1; experiment: flow cytometry on HCC827 cells (PD-L1 on the cell surface), PE-labelled secondary antibody, MFI
Experimental: as §1

human PD-L1 [4] = target: T1, human PD-L1; experiment: flow cytometry on A375 cells (PD-L1 on the cell surface), PE-labelled secondary antibody, MFI
human PD-L1 [5] = target: T1, human PD-L1; experiment: flow cytometry on BT20 cells (PD-L1 on the cell surface), PE-labelled secondary antibody, MFI
Experimental: as §1

Measured: binding

B1: Clone B (antibody, V domains shown)
VH: QGQMQQSGAELVKPGASVKLSCKTSGFTFSSSYISWLKQKPGQSLEWIAWIYAGTGGTSYNQKFTGKAQLTVDTPSSTAYMQFSSLTTEDSAIYYCARHEGKYWYFDVWGAGTTVTVSS
VL: QILLTQSPAIMSASPGEKVTMTCSASSSVSYVHWYQQKPGSSPKPWIYDTSNLASGFPARFSGSGSGTSYSLIISSMEAEDAATYYCHQRSSYPWTFGGGTKLEIK
notes: Mouse hybridoma clone
binds: all assays above

B2: Clone C (antibody, V domains shown)
VH: EVQLQQSGADLVKPGASVKLSCTASGFNIKDTYMHWVKQRPEQGLEWIGRIDPANGNTKYDPKFQGKATITTDTSSNTAYLQLSSLTSEDTAVYYCARGLGRWFAYWGQGTLVTVSA
VL: DIVMTQSHKFMSTSVGDRVSITCKASQDVSNAVAWYQQKPGQSPELLIYSASNRYTGVPDRFTGSGSGTDFTFTISSVQAEDLAVYYCQQHDSTPLTFGAGTKLELK
notes: Mouse hybridoma clone
binds: all assays above

B3: Clone D (antibody, V domains shown)
VH: EVQLQQSGPELVKPGASMKISCKASGYSFTGYTMNWVKQSHGKNLEWIGLIIPYNGGISYNQKFKDKATLTVDKSSSTAYMELLSLTSEDSAVYYCASLITTAPRDSMDYWGQGTSVTVSS
VL: DIQMTQTTSSLSASLGDRVTISCRASQDISNYLNWYQQKPDGSVKLLIYYTSKLHSGVPSRFSGSGSGTDYSLTISNLEQEDIATYFCQQGDALPWTFGGGTKLEIK
notes: Mouse hybridoma clone
binds: all assays above

B4: Clone N (antibody, V domains shown)
VH: B3 VH with Y54H, I58T, S77R, I100M
VL: B3 VL with S43T, K53R, E79D, D92A, A93T
notes: Mouse hybridoma clone
binds: all assays above
